The test concerns the target T1, Transglutaminase-2 (mouse (endogenous in mouse brain)) (UniProt P21981).
T1 sequence: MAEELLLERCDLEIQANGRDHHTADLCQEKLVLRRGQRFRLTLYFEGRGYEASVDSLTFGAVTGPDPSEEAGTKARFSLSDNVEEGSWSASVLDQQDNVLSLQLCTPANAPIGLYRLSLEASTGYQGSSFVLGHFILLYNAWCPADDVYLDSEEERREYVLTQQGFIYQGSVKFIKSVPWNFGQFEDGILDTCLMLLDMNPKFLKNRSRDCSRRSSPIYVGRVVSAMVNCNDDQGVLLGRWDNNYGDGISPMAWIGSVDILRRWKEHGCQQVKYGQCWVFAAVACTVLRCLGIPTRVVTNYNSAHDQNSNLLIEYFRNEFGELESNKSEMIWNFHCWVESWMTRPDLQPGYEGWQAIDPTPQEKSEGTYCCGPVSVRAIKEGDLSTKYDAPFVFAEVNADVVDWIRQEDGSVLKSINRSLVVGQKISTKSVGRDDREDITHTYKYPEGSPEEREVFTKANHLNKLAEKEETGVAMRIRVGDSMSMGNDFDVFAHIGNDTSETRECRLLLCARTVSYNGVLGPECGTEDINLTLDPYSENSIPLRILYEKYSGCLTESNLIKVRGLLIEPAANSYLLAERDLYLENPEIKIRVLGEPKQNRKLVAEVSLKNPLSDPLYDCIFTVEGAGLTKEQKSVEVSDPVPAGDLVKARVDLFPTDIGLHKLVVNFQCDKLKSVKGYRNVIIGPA
Description: affinity purification with mass spectrometry; TG2 immunoprecipitated from total brain homogenates of 18-month-old WT and APP23 mice with anti-TG2 antibody IA12 crosslinked to protein A/G magnetic beads, 22 h at 4 °C; IP lysis buffer 25 mM Tris pH 7.4, 150 mM NaCl, 1 mM EDTA, 1% NP40, 5% glycerol; on-bead trypsin digest, SWATH MS; TG2−/− cohorts as background, z-test p ≤ 0.05, n = 5 per cohort.

These are yes or no findings as the source states them, for the method shown. Binding seen in cells or lysates may run through a third protein. Here binding means that the protein was enriched with, or labelled near, the bait; the list need not be complete.

B1: Ras-related protein Rap-2b (protein, UniProt P61226 1-183)
chain: MREYKVVVLGSGGVGKSALTVQFVTGSFIEKYDPTIEDFYRKEIEVDSSPSVLEILDTAGTEQFASMRDLYIKNGQGFILVYSLVNQQSFQDIKPMRDQIIRVKRYERVPMILVGNKVDLEGEREVSYGEGKALAEEWSCPFMETSAKNKASVDELFAEIVRQMNYAAQPNGDEGCCSACVIL
B1: the binding entry is “binds”.

B2: NSFL1 cofactor p47 (protein, UniProt Q9CZ44 1-370)
chain: MAEERQDALREFVAVTGTEEDRARFFLESAGWDLQIALASFYEDGGDEDIVTISQATPSSVSRGTAPSDNRVTSFRDLIHDQDEEEEEEEGQRFYAGGSERSGQQIVGPPRKKSPNELVDDLFKGAKEHGAVAVERVTKSPGETSKPRPFAGGGYRLGAAPEEESAYVAGERRRHSGQDVHVVLKLWKTGFSLDNGDLRSYQDPSNAQFLESIRRGEVPAELRRLAHGGQVNLDMEDHRDEDFVKPKGAFKAFTGEGQKLGSTAPQVLNTSSPAQQAENEAKASSSILINEAEPTTNIQIRLADGGRLVQKFNHSHRISDIRLFIVDARPAMAATSFVLMTTFPNKELADENQTLKEANLLNAVIVQRLT
For the molecule B2, the binding entry is on record as “binds”.

B3: Secretogranin-2 (protein, UniProt Q03517 31-617)
chain: QRNQLLQKEPDLRLENVQKFPSPEMIRALEYIEKLRQQAHREESSPDYNPYQGVSVPLQLKENGEESHLAESSRDALSEDEWMRIILEALRQAENEPPSAPKENKPYALNLEKNFPVDTPDDYETQQWPERKLKHMRFPLMYEENSRENPFKRTNEIVEEQYTPQSLATLESVFQELGKLTGPSNQKRERVDEEQKLYTDDEDDVYKTNNIAYEDVVGGEDWSPIEEKIETQTQEEVRDSKENTEKNEQINEEMKRSGQLGLPDEENRRESKDQLSEDASKVITYLRRLVNAVGSGRSQSGPNGDRAARLLQKPLDSQSIYQLIEISRNLQIPPEDLIEMLKAGEKPNGLVEPEQDLELAVDLDDIPEADLDRPDMFQSKMLSKGGYPKAPGRGMVEALPDGLSVEDILNVLGMENVVNQKSPYFPNQYSQDKALMRLPYGPGKSRANQIPKVAWIPDVESRQAPYENLNDQELGEYLARMLVKYPELLNTNQLKRVPSPVSSEDDLQEEEQLEQAIKEHLGPGSSQEMERLAKVSKRIPVGSLKNEDTPNRQYLDEDMLLKVLEYLNQEQAEQGREHLAKRAMENM
With B3, the binding entry was “binds”.

B4: Serine/threonine-protein phosphatase 5 (protein, UniProt Q60676 1-499)
chain: MAMAEGERTECAETPRDEPPADGTLKRAEELKTQANDYFKAKDYENAIKFYSQAIELNPGNAIYYGNRSLAYLRTECYGYALGDATRAIELDKKYIKGYYRRAASNMALGKFRAALRDYETVVKVKPNDKDAKMKYQECSKIVKQKAFERAIAGDEHRRSVVDSLDIESMTIEDEYSGPKLEDGKVTITFMKDLMQWYKDQKKLHRKCAYQILVQVKEVLCKLSTLVETTLKETEKITVCGDTHGQFYDLLNIFELNGLPSETNPYIFNGDFVDRGSFSVEVILTLFGFKLLYPDHFHLLRGNHETDNMNQIYGFEGEVKAKYTAQMYELFSEVFEWLPLAQCINGKVLIMHGGLFSEDGVTLDDIRKIERNRQPPDSGPMCDLLWSDPQPQNGRSVSKRGVSCQFGPDVTKAFLEENQLDYIIRSHEVKAEGYEVAHGGRCVTVFSAPNYCDQMGNKASYIHLQGSDLRPQFHQFTAVPHPNVKPMAYANTLLQLGMM
For the molecule B4, the binding entry was “binds”.

B5: PRA1 family protein 3 (protein, UniProt Q8R5J9 1-188)
chain: MDVNLAPLRAWDDFFPGSDRFARPDFRDISKWNNRVVSNLLYYQTNYLVVAAMMISVVGFLSPFNMILGGVIVVLVFMGFVWAAHNKDILRRMKKQYPTAFVMVVMLASYFLISMFGGVMVFVFGITLPLLLMFIHASLRLRNLKNKLENKMEGIGLKKTPMGIILDALEQQEDNINKFADYISKARE
Turning to B5, the binding entry is listed as “binds”.

B6: Semaphorin-3C (protein, UniProt Q62181 21-751)
chain: GSSQPQARVYLTFDELRETKTSEYFSLSHQQLDYRILLMDEDQDRIYVGSKDHILSLNINNISQEPLSVFWPASTIKVEECKMAGKDPTHGCGNFVRVIQTFNRTHLYVCGSGAFSPVCTYLNRGRRSEDQVFMIDSKCESGKGRCSFNPNVNTVSVMINEELFSGMYIDFMGTDAAIFRSLTKRNAVRTDQHNSKWLSEPMFVDAHVIPDGTDPNDAKVYFFFKERLTDNNRSTKQIHSMIARICPNDTGGQRSLVNKWTTFLKARLVCSVTDEDGPETHFDELEDVFLLETDNPRTTLVYGIFTTSSSVFKGSAVCVYHLSDIQTVFNGPFAHKEGPNHQLISYQGRIPYPRPGTCPGGAFTPNMRTTKDFPDDVVTFIRNHPLMYNSIYPIHRRPLIVRIGTDYKYTKIAVDRVNAADGRYHVLFLGTDRGTVQKVVVLPTNSSASGELILEELEVFKNHVPITTMKISSKKQQLYVSSNEGVSQVSLHRCHIYGTACADCCLARDPYCAWDGHSCSRFYPTGKRRSRRQDVRHGNPLTQCRGFNLKAYRNAAEIVQYGVRNNSTFLECAPKSPQASIKWLLQKDKDRRKEVKLNERIIATSQGLLIRSVQDSDQGLYHCIATENSFKQTIAKINFKVLDSEMVAVVTDKWSPWTWAGSVRALPFHPKDILGAFSHSEMQLINQYCKDTRQQQQLGEEPQKMRGDYGKLKALINSRKSRNRRNQLPES
Take B6: the binding result is reported as “binds”.

B7: Fibrinogen gamma chain (protein, UniProt Q8VCM7 26-436)
chain: YVATRDNCCILDERFGSFCPTTCGIADFLSSYQTDVDNDLRTLEDILFRAENRTTEAKELIKAIQVYYNPDQPPKPGMIDSATQKSKKMVEEIVKYEALLLTHETSIRYLQEIYNSNNQKITNLKQKVAQLEAQCQEPCKDSVQIHDTTGKDCQEIANKGAKESGLYFIRPLKAKQQFLVYCEIDGSGNGWTVLQKRIDGSLDFKKNWIQYKEGFGHLSPTGTTEFWLGNEKIHLISMQSTIPYALRIQLKDWNGRTSTADYAMFRVGPESDKYRLTYAYFIGGDAGDAFDGYDFGDDPSDKFFTSHNGMQFSTWDNDNDKFEGNCAEQDGSGWWMNKCHAGHLNGVYHQGGTYSKSSTTNGFDDGIIWATWKSRWYSMKETTMKIIPFNRLSIGEGQQHHMGGSKQAGDV
With B7, the binding result is recorded as “binds”.

B8: Myelin proteolipid protein (protein, UniProt P60202 1-277)
chain: MGLLECCARCLVGAPFASLVATGLCFFGVALFCGCGHEALTGTEKLIETYFSKNYQDYEYLINVIHAFQYVIYGTASFFFLYGALLLAEGFYTTGAVRQIFGDYKTTICGKGLSATVTGGQKGRGSRGQHQAHSLERVCHCLGKWLGHPDKFVGITYALTVVWLLVFACSAVPVYIYFNTWTTCQSIAFPSKTSASIGSLCADARMYGVLPWNAFPGKVCGSNLLSICKTAEFQMTFHLFIAAFVGAAATLVSLLTFMIAATYNFAVLKLMGRGTKF
As to B8, the binding entry is recorded as “binds”.

B9: Glutamate receptor ionotropic, delta-2 (protein, UniProt Q61625 24-1007)
chain: DSIIHIGAIFDESAKKDDEVFRTAVGDLNQNEEILQTEKITFSVTFVDGNNPFQAVQEACELMNQGILALVSSIGCTSAGSLQSLADAMHIPHLFIQRSTAGTPRSGCGLTRSNRNDDYTLSVRPPVYLNEVILRVVTEYAWQKFIIFYDSEYDIRGIQEFLDKVSQQGMDVALQKVENNINKMITTLFDTMRIEELNRYRDTLRRAILVMNPATAKSFISEVVETNLVAFDCHWIIINEEINDVDVQELVRRSIGRLTIIRQTFPVPQNISQRCFRGNHRISSSLCDPKDPFAQNMEISNLYIYDTVLLLANAFHKKLEDRKWHSMASLSCIRKNSKPWQGGRSMLETIKKGGVNGLTGDLEFGENGGNPNVHFEILGTNYGEELGRGVRKLGCWNPVTGLNGSLTDKKLENNMRGVVLRVVTVLEEPFVMVSENVLGKPKKYQGFSIDVLDALSNYLGFNYEIYVAPDHKYGSPQEDGTWNGLVGELVFKRADIGISALTITPDRENVVDFTTRYMDYSVGVLLRRAEKTVDMFACLAPFDLSLWACIAGTVLLVGLLVYLLNWLNPPRLQMGSMTSTTLYNSMWFVYGSFVQQGGEVPYTTLATRMMMGAWWLFALIVISSYTANLAAFLTITRIESSIQSLQDLSKQTDIPYGTVLDSAVYQHVRMKGLNPFERDSMYSQMWRMINRSNGSENNVLESQAGIQKVKYGNYAFVWDAAVLEYVAINDPDCSFYTVGNTVADRGYGIALQHGSPYRDVFSQRILELQQSGDMDILKHKWWPKNGQCDLYSSVDAKQKGGALDIKSLAGVFCILAAGIVLSCLIAVLETWWSRRKGSRVPSKEDDKEIDLEHLHRRVNSLCTDDDSPHKQFSTSSIDLTPLDIDTLPTRQALEQISDFRNTHITTTTFIPEQIQTLSRTLSAKAASGFAFGSVPEHRTGPFRHRAPNGGFFRSPIKTMSSIPYQPTPTLGLNLGNDPDRGTSI
Turning to B9, the binding entry is “binds”.

The values above are taken from PMC8834516.
